Laboratory results: the supplement of paper PMC8728848
The list shows a part of the results.

What was measured:
Test in all cases: glycan array binding signal (z-score within array); higher = stronger binding
Details in all cases: glycan notation: IUPAC condensed, linker removed
[1] = target: Neu5Ac(a2-3)Gal(b1-4)GlcNAc(b1-2)Man
Summary of the method: (§1)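 Glycan array binding is given as a within-array Z-score, which can be read as non-binding when negative. The arrays, 3228 of them, came from the Consortium for Functional Glycomics database and were retained only where the protein sequence was available. Z-scores were averaged across arrays of the same protein sequence at different concentrations or buffers and across linkers.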

[2] = target: Neu5Ac(a2-3)Gal(b1-4)GlcNAc(b1-2)Man(a1-3)[GlcNAc(b1-4)][Neu5Ac(a2-3)Gal(b1-4)GlcNAc(b1-2)Man(a1-6)]Man(b1-4)GlcNAc(b1-4)GlcNAc
Summary of the method: as §1

[3] = target: Neu5Ac(a2-3)Gal(b1-4)GlcNAc(b1-2)Man(a1-3)[Neu5Ac(a2-3)Gal(b1-4)GlcNAc(b1-2)Man(a1-6)]Man(b1-4)GlcNAc(b1-4)GlcNAc
Summary of the method: as §1

[4] = target: Neu5Ac(a2-3)Gal(b1-4)GlcNAc(b1-2)Man(a1-3)[Neu5Ac(a2-3)Gal(b1-4)GlcNAc(b1-2)Man(a1-6)]Man(b1-4)GlcNAc(b1-4)[Fuc(a1-6)]GlcNAc
Summary of the method: as §1

[5] = target: Neu5Ac(a2-3)Gal(b1-4)GlcNAc(b1-2)Man(a1-3)[Neu5Ac(a2-6)Gal(b1-4)GlcNAc(b1-2)Man(a1-6)]Man(b1-4)GlcNAc(b1-4)GlcNAc
Summary of the method: as §1

[6] = target: Neu5Ac(a2-3)Gal(b1-4)GlcNAc(b1-2)[Neu5Ac(a2-3)Gal(b1-4)GlcNAc(b1-4)]Man(a1-3)[GlcNAc(b1-4)][Neu5Ac(a2-3)Gal(b1-4)GlcNAc(b1-2)[Neu5Ac(a2-3)Gal(b1-4)GlcNAc(b1-6)]Man(a1-6)]Man(b1-4)GlcNAc(b1-4)GlcNAc
Summary of the method: as §1

[7] = target: Neu5Ac(a2-3)Gal(b1-4)GlcNAc(b1-2)[Neu5Ac(a2-3)Gal(b1-4)GlcNAc(b1-4)]Man(a1-3)[GlcNAc(b1-4)][Neu5Ac(a2-3)Gal(b1-4)GlcNAc(b1-4)Man(a1-6)]Man(b1-4)GlcNAc(b1-4)GlcNAc
Summary of the method: as §1

[8] = target: Neu5Ac(a2-3)Gal(b1-4)GlcNAc(b1-2)[Neu5Ac(a2-3)Gal(b1-4)GlcNAc(b1-6)]Man(a1-6)[Neu5Ac(a2-3)Gal(b1-4)GlcNAc(b1-2)Man(a1-3)][GlcNAc(b1-4)]Man(b1-4)GlcNAc(b1-4)GlcNAc
Summary of the method: as §1

[9] = target: Neu5Ac(a2-3)Gal(b1-4)GlcNAc(b1-3)Gal
Summary of the method: as §1

[10] = target: Neu5Ac(a2-3)Gal(b1-4)GlcNAc(b1-3)Gal(b1-3)GlcNAc
Summary of the method: as §1

[11] = target: Neu5Ac(a2-3)Gal(b1-4)GlcNAc(b1-3)Gal(b1-4)GlcNAc
Summary of the method: as §1

[12] = target: Neu5Ac(a2-3)Gal(b1-4)GlcNAc(b1-3)Gal(b1-4)GlcNAc(b1-2)Man(a1-3)[Neu5Ac(a2-3)Gal(b1-4)GlcNAc(b1-3)Gal(b1-4)GlcNAc(b1-2)Man(a1-6)]Man(b1-4)GlcNAc(b1-4)GlcNAc
Summary of the method: as §1

[13] = target: Neu5Ac(a2-3)Gal(b1-4)GlcNAc(b1-3)Gal(b1-4)GlcNAc(b1-3)Gal(b1-4)GlcNAc
Summary of the method: as §1

[14] = target: Neu5Ac(a2-3)Gal(b1-4)GlcNAc(b1-3)Gal(b1-4)GlcNAc(b1-3)Gal(b1-4)GlcNAc(b1-2)Man(a1-3)[Neu5Ac(a2-3)Gal(b1-4)GlcNAc(b1-3)Gal(b1-4)GlcNAc(b1-3)Gal(b1-4)GlcNAc(b1-2)Man(a1-6)]GalNAc
Summary of the method: as §1

[15] = target: Neu5Ac(a2-3)Gal(b1-4)GlcNAc(b1-3)Gal(b1-4)GlcNAc(b1-3)GalNAc
Summary of the method: as §1

[16] = target: Neu5Ac(a2-3)Gal(b1-4)GlcNAc(b1-3)Gal(b1-4)GlcNAc(b1-3)[Neu5Ac(a2-3)Gal(b1-4)GlcNAc(b1-3)Gal(b1-4)GlcNAc(b1-6)]GalNAc
Summary of the method: as §1

[17] = target: Neu5Ac(a2-3)Gal(b1-4)GlcNAc(b1-3)Gal(b1-4)GlcNAc(b1-6)[Gal(b1-3)]GalNAc
Summary of the method: as §1

[18] = target: Neu5Ac(a2-3)Gal(b1-4)GlcNAc(b1-3)Gal(b1-4)[Fuc(a1-3)]GlcNAc
Summary of the method: as §1

[19] = target: Neu5Ac(a2-3)Gal(b1-4)GlcNAc(b1-3)GalNAc
Summary of the method: as §1

[20] = target: Neu5Ac(a2-3)Gal(b1-4)GlcNAc(b1-3)[Neu5Ac(a2-3)Gal(b1-4)GlcNAc(b1-6)]GalNAc
Summary of the method: as §1

[21] = target: Neu5Ac(a2-3)Gal(b1-4)GlcNAc(b1-6)GalNAc
Summary of the method: as §1

[22] = target: Neu5Ac(a2-3)Gal(b1-4)GlcNAc(b1-6)[Gal(b1-3)]GalNAc
Summary of the method: as §1

[23] = target: Neu5Ac(a2-3)Gal(b1-4)GlcNAc(b1-6)[Neu5Ac(a2-3)Gal(b1-3)]GalNAc
Summary of the method: as §1

B1: Endo180d1-D4 (Homo sapiens), Q9UBG0 (protein)
chain: MGPGRPAPAPWPRHLLRCVLLLGCLHLGRPGAPGDAALPEPNVFLIFSHGLQGCLEAQGGQVRVTPACNTSLPAQRWKWVSRNRLFNLGTMQCLGTGWPGTNTTASLGMYECDREALNLRWHCRTLGDQLSLLLGARTSNISKPGTLERGDQTRSGQWRIYGSEEDLCALPYHEVYTIQGNSHGKPCTIPFKYDNQWFHGCTSTGREDGHLWCATTQDYGKDERWGFCPIKSNDCETFWDKDQLTDSCYQFNFQSTLSWREAWASCEQQGADLLSITEIHEQTYINGLLTGYSSTLWIGLNDLDTSGGWQWSDNSPLKYLNWESDQPDNPSEENCGVIRTESSGGWQNRDCSIALPYVCKKKPNATAEPTPPDRWANVKVECEPSWQPFQGHCYRLQAEKRSWQESKKACLRGGGDLVSIHSMAELEFITKQIKQEVEELWIGLNDLKLQMNFEWSDGSLVSFTHWHPFEPNNFRDSLEDCVTIWGPEGRWNDSPCNQSLPSICKKAGQLSQGAAEEDHGCRKGWTWHSPSCYWLGEDQVTYSEARRLCTDHGSQLVTITNRFEQAFVSSLIYNWEGEYFWTALQDLNSTGSFFWLSGDEVMYTHWNRDQPGYSRGGCVALATGSAMGLWEVKNCTSFRARYICRQSLGTPVTPELPGPDPTPSLTGSCPQGWASDTKLRYCYKVFSSERLQDKKSWVQAQGACQELGAQLLSLASYEEEHFVANMLNKIFGESEPEIHEQHWFWIGLNRRDPRGGQSWRWSDGVGFSYHNFDRSRHDDDDIRGCAVLDLASLQWVAMQCDTQLDWICKIPRGTDVREPDDSPQGRREWLRFQEAEYKFFEHHSTWAQAQRICTWFQAELTSVHSQAELDFLSHNLQKFSRAQEQHWWIGLHTSESDGRFRWTDGSIINFISWAPGKPRPVGKDKKCVYMTASREDWGDQRCLTALPYICKRSNVTKETQPPDLPTTALGGCPSDWIQFLNKCFQVQGQEPQSRVKWSEAQFSCEQQEAQLVTITNPLEQAFITASLPNVTFDLWIGLHASQRDFQWVEQEPLMYANWAPGEPSGPSPAPSGNKPTSCAVVLHSPSAHFTGRWDDRSCTEETHGFICQKGTDPSLSPSPAALPPAPGTELSYLNGTFRLLQKPLRWHDALLLCESHNASLAYVPDPYTQAFLTQAARGLRTPLWIGLAGEEGSRRYSWVSEEPLNYVGWQDGEPQQPGGCTYVDVDGAWRTTSCDTKLQGAVCGVSSGPPPPRRISYHGSCPQGLADSAWIPFREHCYSFHMELLLGHKEARQRCQRAGGAVLSILDEMENVFVWEHLQSYEGQSRGAWLGMNFNPKGGTLVWQDNTAVNYSNWGPPGLGPSMLSHNSCYWIQSNSGLWRPGACTNITMGVVCKLPRAEQSSFSPSALPENPAALVVVLMAVLLLLALLTAALILYRRRQSIERGAFEGARYSRSSSSPTEATEKNILVSDMEMNEQQE
glycan array binding signal (z-score) [1]: -0.693
glycan array binding signal (z-score) [2]: 0.657
glycan array binding signal (z-score) [3]: -0.688
glycan array binding signal (z-score) [4]: 1.03
glycan array binding signal (z-score) [5]: 1.42
glycan array binding signal (z-score) [6]: -0.801
glycan array binding signal (z-score) [7]: 0.456
glycan array binding signal (z-score) [8]: -0.584
glycan array binding signal (z-score) [9]: 0.249
glycan array binding signal (z-score) [10]: 1.62
glycan array binding signal (z-score) [11]: -0.324
glycan array binding signal (z-score) [12]: 0.637
glycan array binding signal (z-score) [13]: -0.346
glycan array binding signal (z-score) [14]: 0.871
glycan array binding signal (z-score) [15]: -0.597
glycan array binding signal (z-score) [16]: 0.933
glycan array binding signal (z-score) [17]: -1.2
glycan array binding signal (z-score) [18]: -0.946
glycan array binding signal (z-score) [19]: -0.221
glycan array binding signal (z-score) [20]: 0.176
glycan array binding signal (z-score) [21]: -0.813
glycan array binding signal (z-score) [22]: 0.731
glycan array binding signal (z-score) [23]: 0.222
